# Assay results

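HEK-293 cells carrying an ATXN2-luciferase reporter; luminescence signal loss after 24 h of compound exposure, with a parallel cell viability readout.
Compounds were tested as a dilution series from about 0.0037 to 57 µM.
The number is the fitted half-maximal inhibitory concentration (AC50); a lower value means a more potent inhibitor.
Calls come from curve class and activity score: actives score 40–100, while inconclusive compounds (weak, partial, poorly fitted or single-point curves) score 1–39.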

Values are in µM.
All entries here are filed as inconclusive.
These entries are mostly ones the record files as inconclusive; other results of the assay are not listed here.
A potency from a partial, single-point or poor curve is only a rough figure.
Some entries filed as inconclusive have a full curve.
Activity scores are not listed here.

Compound | potency (µM) | remark
COc1ccc(C(=O)N/N=C/c2ccc(N(C)c3ccccc3)cc2)cc1 | 2.512 | inhibitor, partial curve, poor fit
Cc1cccc(C(=O)N[C@H](C(=O)Nc2ncc(C)s2)C(C)C)c1 | 3.162 | inhibitor, full curve, poor fit
CCCCn1c(=O)c(C(=O)Nc2ccccc2S(N)(=O)=O)c(O)c2ccccc21 | 39.81 | inhibitor, single point
COc1ccc(C2CC(c3ccc(C(F)(F)F)cc3)=NN2c2ccc(S(N)(=O)=O)cc2)cc1 (centres undefined) | 28.18 | inhibitor, single point
COCOCCn1cc(CN2CCS(=O)(=O)N(Cc3ccc(-c4ccc(OC)cc4)cc3)C(CC(C)C)C2=O)nn1 (centres undefined) | 31.62 | inhibitor, single point
Cc1ccccc1Oc1cc(NC(=O)CCCn2nc(C)c([N+](=O)[O-])c2C)cc([N+](=O)[O-])c1 | 2.512 | inhibitor, partial curve
O=C(Cc1coc2cc3c(cc12)CCC3)OCC(=O)N1CCCC1=O | 14.13 | inhibitor, partial curve, poor fit
Cc1cc(SCC(=O)OC/C(O)=C(\C#N)c2nc3ccccc3[nH]2)c(C)cc1Br | 22.39 | inhibitor, partial curve, poor fit
O=C(c1ccc(Cl)s1)N1CCN(c2nc3ccccc3s2)CC1 | 0.7079 | inhibitor, partial curve
CCOC(=O)N(C)c1c(CC)nc2c(OCc3ccccc3C)cccn12 | 25.12 | inhibitor, single point
O=S(=O)(c1cccs1)N1CCN(c2ccnc3cc(Cl)ccc23)CC1 | 17.78 | inhibitor, partial curve, poor fit
C[C@@H]1CN([C@H](C)CO)S(=O)(=O)c2ccc(-c3ccc(C#N)cc3)cc2O[C@H]1CN(C)C(=O)Nc1cc(F)ccc1F | 15.85 | inhibitor, partial curve, poor fit
c1ccc(-c2cc3c(N4CCN(c5ccccc5)CC4)ncnc3s2)cc1 | 35.48 | inhibitor, partial curve, poor fit
CCOC(=O)C1CCN(C(=O)c2c(C)oc3c2C(=O)c2ccccc2C3=O)CC1 | 12.59 | inhibitor, partial curve, poor fit
CN1Cc2c(N3CCOCC3)nc3sc(C(=O)c4ccccc4)c(N)c3c2CC1(C)C | 3.162 | inhibitor, single point
COc1cc2c(O)c3c(c(-c4ccc5c(c4)OCO5)c2cc1OC)C(=O)OC3 | 0.8913 | inhibitor, full curve
Cc1cc(C)n(CC(O)Cn2c3ccc(Cl)cc3c3cc(Cl)ccc32)c(=O)n1 (centres undefined) | 3.162 | inhibitor, single point
Nc1c(C(=O)NCc2ccccc2)c2nc3ccccc3nc2n1-c1ccc2c(c1)OCO2 | 2.818 | inhibitor, partial curve
CCOc1cc(CNCCc2c[nH]c3ccccc23)cc(Cl)c1OC | 19.95 | inhibitor, partial curve, poor fit
O=c1cc(-c2ccccc2Cl)oc2c([N+](=O)[O-])c(O)cc(O)c12 | 8.912 | inhibitor, single point
O=C(Nc1ccc(N2CCN(C(=O)c3ccco3)CC2)c(Cl)c1)c1cccs1 | 31.62 | inhibitor, single point
O[C@@H]1[C@@H](O)C=C2CCN3Cc4cc5c(cc4[C@H]1C23)OCO5 (some centres undefined) | 3.981 | inhibitor, full curve, poor fit
CC(C)=C1SC(N2CCN(c3ccc(C)c(Cl)c3)CC2)=NC1=O | 2.512 | inhibitor, partial curve
O=C(Nc1cccc(Br)c1)Oc1cccc2cccnc12 | 28.18 | inhibitor, single point
CCCCn1c(SCC(=O)Nc2cc(NC(=O)c3ccco3)ccc2C)nc2ccccc2c1=O | 25.12 | inhibitor, single point
CCCCC(=O)N/N=C/c1c(O)n(Cc2ccc(F)cc2)c(=O)[nH]c1=O | 15.85 | inhibitor, partial curve, poor fit
O=c1c2ccccc2sc2c(CO)ccc(NCCN3CCCCC3)c12 | 19.95 | inhibitor, partial curve, poor fit
CCCCCOc1ccc(C)cc1CN(CCCl)CCCl | 25.12 | inhibitor, partial curve, poor fit
O=C1c2cc(Cl)ccc2-c2c(O)cc(Cl)cc21 | 22.39 | inhibitor, single point
CC1(C)c2[nH]c3ccccc3c2C[C@H]2C(=O)N(Cc3ccccc3F)C(=O)N21 | 39.81 | inhibitor, single point
CC1CCN(C(=O)c2cc3nc(-c4ccccc4)cc(-c4ccccc4)n3n2)CC1 | 3.162 | inhibitor, single point
Cc1ccc(S(=O)(=O)N(C(=O)c2ccncc2)c2ccc(OC(=O)c3ccncc3)c3ccccc23)cc1 | 3.548 | inhibitor, single point
OC1CCCN(Cc2c3ccccc3cc3ccccc23)C1 (centres undefined) | 28.18 | inhibitor, partial curve, poor fit
Clc1ccc(-c2cc(C3CCNCC3)[nH]n2)c(Cl)c1 | 15.85 | inhibitor, partial curve, poor fit
Clc1ccc(CSc2ccc(-c3ccccn3)nn2)cc1 | 3.162 | inhibitor, single point

Data taken from PubChem BioAssay AID1745848, deposited by NCATS (2022).